Results deposited as PubChem BioAssay AID504764 (Drosophila RNAi Screening Center, 2011)
Aim: 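Genome-wide screen for regulators of Notch-driven gene expression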 (primary screen). System: Drosophila Kc167 cells. Knock-down reagent: long dsRNA against Drosophila genes. Time to read-out: about 5 days (4 days dsRNA, then 24 h after transfection). Challenge: transfection of constitutively active membrane-tethered Notch lacking the extracellular domain, read 24 h later. Detection: 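Light from a Notch-responsive E(spl)m3 luciferase reporter under active Notch, with control-promoter and no-Notch reporter wells to normalise; raw counts from paired wells a and b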. Scale: induced reporter light, run 1, well a and induced reporter light, run 1, well b: higher = more light from the Notch target reporter with active Notch; control promoter light, run 1, well a and control promoter light, run 1, well b: higher = more light from the viral control promoter (cell number, transfection, viability); uninduced reporter light, run 1, well a: higher = more light from the Notch target reporter without active Notch. Call rule: 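Hit if the duplicate-averaged log2 ratio of induced to control-promoter light gives a plate-wise z beyond ±2, or induced to uninduced beyond ±1.8; weak-control or discordant-duplicate wells dropped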. Meaning of the calls: active = modifier hit (raised or lowered Notch signal); inactive = not a hit.
The deposit covers about 22,000 reagents; this is an unselected part of those with a known target gene and a result. In the full data, 403 (1.9%) got an active call. 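Unnormalised raw counts per well; ratio z-scores behind the hit calls and whether each hit raises or lowers signal are not deposited.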 A number with no mark means an inactive call. Reagents against one gene are numbered here. Names joined by + are all predicted targets of the reagent. No sequences are given here. Not given: the amount of reagent.

| gene | reagent no. | induced reporter light, run 1, well a | induced reporter light, run 1, well b | control promoter light, run 1, well a | control promoter light, run 1, well b | uninduced reporter light, run 1, well a |
| --- | --- | --- | --- | --- | --- | --- |
| CG7632 | 1 | 99080 | 1.05e5 | 77685 | 64690 | 5630 |
| CG15221 | 1 | 1.27e5 | 1.61e5 | 2.10e5 | 2.60e5 | 9365 |
| Vha16-4 + CG15614 | 1 | 98155 | 91430 | 1.39e5 | 1.51e5 | 7825 |
| RIOK2 (RIO kinase 2) | 1 | 1.48e5 | 1.39e5 | 2.04e5 | 1.87e5 | 13330 |
| abd-A (abdominal A) | 1 | 10240 | 11040 | 5750 | 5955 | 3515 |
| abd-A (abdominal A) | 2 | 11825 | 11720 | 12085 | 14370 | 3382 |

3 entries from above in another layout.
gene,reagent no.,"induced reporter light, run 1, well a","induced reporter light, run 1, well b","control promoter light, run 1, well a","control promoter light, run 1, well b","uninduced reporter light, run 1, well a"
CG7632,1,99080,1.05e5,77685,64690,5630
CG15221,1,1.27e5,1.61e5,2.10e5,2.60e5,9365
Vha16-4 + CG15614,1,98155,91430,1.39e5,1.51e5,7825

The results go on:
| gene | reagent no. | induced reporter light, run 1, well a | induced reporter light, run 1, well b | control promoter light, run 1, well a | control promoter light, run 1, well b | uninduced reporter light, run 1, well a |
| --- | --- | --- | --- | --- | --- | --- |
| mbl (muscleblind) | 1 | 1.16e5 | 1.17e5 | 1.50e5 | 1.42e5 | 9140 |
| mbl (muscleblind) | 2 | 30825 | 26365 | 44520 | 47930 | 4578 |
| mbl (muscleblind) | 3 | 95395 | 62170 | 76360 | 98855 | 10370 |
| CG3285 | 1 | 78845 | 92280 | 82025 | 83275 | 5680 |
| CG1231 | 1 | 3.34e5 | 2.76e5 | 4.21e5 | 3.27e5 | 13520 |
| CG31910 + snoRNA:Me28S-G2743 (retired record) | 1 | 1.11e5 | 97950 | 1.27e5 | 1.30e5 | 9305 |
| CG33230 | 1 | 1.11e5 | 1.21e5 | 2.28e5 | 2.36e5 | 11165 |
| barc (barricade) | 1 | 1.27e5 | 1.19e5 | 76755 | 92985 | 8240 |
| CG32302 | 1 | 99525 | 1.02e5 | 1.85e5 | 1.46e5 | 6790 |
| Rbp4 (RNA-binding protein 4) | 1 | 2.43e5 | 2.77e5 | 1.95e5 | 1.84e5 | 19595 |
| Pig1 (Pre-intermoult gene 1) | 1 | 75060 | 63155 | 48970 | 44140 | 14340 |
| hh (hedgehog) | 1 | 1.29e5 | 1.43e5 | 1.68e5 | 1.50e5 | 11665 |
| CG34425 | 1 | 61020 | 41220 | 37245 | 36180 | 3245 |
| BubR1 (Bub1-related kinase) | 1 | 1.14e5 | 98880 | 1.14e5 | 1.21e5 | 9020 |
